Experimental data taken from article PMC7335352.
Construct, isoform or probe ends are uncertain for at least one entry. At least one verdict was read from the data and is not stated in words by the source.

Assays:
[1] = test system: condensin I-ybbR, Alexa647 (Homo sapiens); test: EMSA; conditions: fluorophore did not affect binding; EMSA: 20 mM HEPES pH 8, 300 mM KCl, 5 mM MgCl2, 1 mM DTT, 10% glycerol, on ice; recombinant protein; label: 6-FAM on reverse strand
[2] = test system: condensin II-ybbR, Alexa647 (Homo sapiens); test: EMSA; conditions: fluorophore did not affect binding; EMSA: 20 mM HEPES pH 8, 300 mM KCl, 5 mM MgCl2, 1 mM DTT, 10% glycerol, on ice; recombinant protein; label: 6-FAM on reverse strand

CTGTCACACCCTGTCACACCTGTCACAC (double strand) [30-bp dsDNA, 6-FAM]
binding result [1]: binds | binding result [2]: binds
